Assay results reported in patent US7368576B2, “Dipeptidyl peptidase IV inhibitors and their uses as anti-cancer agents” (Probiodrug AG, priority 2001, dated 2008).
At least one compound was matched to its structure with a doubt left.

How the values were obtained:
Type in all cases: biochemical
[1] = target: T1, recombinant human prolyl oligopeptidase (POP) (Homo sapiens, UniProt P48147); experiment: Cross reacting enzymes: prolyl oligopeptidase; conditions: concentration range 1*10^−4 M-5*10^−8 M
T1 construct: made in house; host or cells: E. coli
T1 sequence (P48147 1-710): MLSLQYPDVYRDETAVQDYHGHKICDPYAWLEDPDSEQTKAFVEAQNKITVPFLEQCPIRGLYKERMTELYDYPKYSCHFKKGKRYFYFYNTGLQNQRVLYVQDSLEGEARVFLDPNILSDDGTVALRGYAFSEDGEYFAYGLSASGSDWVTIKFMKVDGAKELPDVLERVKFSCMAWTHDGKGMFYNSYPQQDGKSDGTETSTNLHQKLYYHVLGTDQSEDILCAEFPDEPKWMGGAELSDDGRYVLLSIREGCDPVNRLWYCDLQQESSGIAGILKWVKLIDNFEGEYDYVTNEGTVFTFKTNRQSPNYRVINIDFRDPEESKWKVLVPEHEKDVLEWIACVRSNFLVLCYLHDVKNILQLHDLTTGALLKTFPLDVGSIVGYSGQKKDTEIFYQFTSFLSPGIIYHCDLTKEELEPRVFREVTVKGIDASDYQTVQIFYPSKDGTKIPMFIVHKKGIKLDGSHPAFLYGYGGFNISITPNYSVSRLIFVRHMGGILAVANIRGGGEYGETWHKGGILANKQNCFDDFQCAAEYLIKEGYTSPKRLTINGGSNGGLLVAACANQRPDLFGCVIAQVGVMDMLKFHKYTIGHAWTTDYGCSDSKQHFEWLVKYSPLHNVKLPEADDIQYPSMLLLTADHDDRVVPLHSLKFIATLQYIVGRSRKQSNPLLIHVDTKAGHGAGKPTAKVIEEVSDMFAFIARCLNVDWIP
Protocol: Substrates are peptides with a molecular weight up to 3000 Da. The enzyme used was a recombinant human prolyl oligopeptidase. Recombinant expression was performed in E. coli under standard conditions as described elsewhere in the state of the art.
100 μl glutaminyl pyrrolidine or glutaminyl thiazolidine in an concentration range of 1*10^−4 M-5*10^−8 M were admixed with 100 μl μl buffer solution (40 mM HEPES, pH7.6, 0.015% Brij, 1 mM DTT) and 20 μl POP solution. The assay mixture was pre-incubated at 30° C. for 15 min. After pre-incubation, 50 μl glycylprolylprolyl-4-nitroaniline solution (0.29 mM) was added and measurement of yellow color development due to 4-nitroaniline release was performed at 30° C. and λ=405 nm for 10 min using a plate reader (sunrise, Tecan, Crailsheim, Germany). The IC50-values were calculated using Graphit 4.0.15 (Erithacus Software, Ltd., UK).

[2] = target: T2, Prolidase from porcine kidney (Sus scrofa, UniProt A0A5G2QQV1); experiment: Cross reacting enzymes: prolidase; conditions: Ile-Pro-OH 0.5 mM, pH 7.6; read-out: IC50 against prolidase
T2 construct: Prolidase from porcine kidney; purchased ICN Biomedicals, Eschwege, Germany; host or cells: porcine kidney
T2 sequence (A0A5G2QQV1 1-463): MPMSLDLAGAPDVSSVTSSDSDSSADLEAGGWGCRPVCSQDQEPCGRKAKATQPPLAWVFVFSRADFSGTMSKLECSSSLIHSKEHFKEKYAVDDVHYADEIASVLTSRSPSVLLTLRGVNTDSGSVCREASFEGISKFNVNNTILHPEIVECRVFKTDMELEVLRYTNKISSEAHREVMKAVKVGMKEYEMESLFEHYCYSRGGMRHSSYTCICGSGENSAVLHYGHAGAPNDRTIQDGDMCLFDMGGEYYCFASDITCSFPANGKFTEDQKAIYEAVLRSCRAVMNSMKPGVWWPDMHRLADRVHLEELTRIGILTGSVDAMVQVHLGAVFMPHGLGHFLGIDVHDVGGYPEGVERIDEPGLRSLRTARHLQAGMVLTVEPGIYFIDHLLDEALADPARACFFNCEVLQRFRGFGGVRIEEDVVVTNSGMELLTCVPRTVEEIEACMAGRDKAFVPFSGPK
Protocol: Prolidase from porcine kidney (ICN Biomedicals, Eschwege, Germany) was solved (1 mg/ml) in assay buffer (20 mM NH4(CH3COO)2, 3 mM MnCl2, pH 7.6). In order to get a fully active enzyme the solution was incubated for 60 min at room temperature.
450 μl glutaminyl pyrrolidine or glutaminyl thiazolidine in an concentration range of 5*10^−3 M-5*10^−7 M were admixed with 500 μl buffer solution (20 mM […], pH 7.6) and 250 μl Ile-Pro-OH (0.5 mM in the assay mixture). The assay mixture was pre-incubated at 30° C. for 5 min. After pre-incubation, 75 μl Prolidase (1:10 diluted in assay buffer) were added and measurement was performed at 30° C. and λ=220 nm for 20 min using a UV/Vis photometer, UV1 (Thermo Spectronic, Cambridge, UK).
The IC 50-values were calculated using Graphit 4.0.15 (Erithacus Software, Ltd., UK).

[3] = target: T3, Dipeptidyl Peptidase I (DP I, Cathepsin C) (Rattus norvegicus, UniProt P80067); experiment: Cross reacting enzymes: dipeptidyl peptidase I; conditions: concentration range 1*10^−5 M-1*10^−7 M
T3 construct: purchased Qiagen GmbH, Hilden, Germany
T3 sequence (P80067 25-462): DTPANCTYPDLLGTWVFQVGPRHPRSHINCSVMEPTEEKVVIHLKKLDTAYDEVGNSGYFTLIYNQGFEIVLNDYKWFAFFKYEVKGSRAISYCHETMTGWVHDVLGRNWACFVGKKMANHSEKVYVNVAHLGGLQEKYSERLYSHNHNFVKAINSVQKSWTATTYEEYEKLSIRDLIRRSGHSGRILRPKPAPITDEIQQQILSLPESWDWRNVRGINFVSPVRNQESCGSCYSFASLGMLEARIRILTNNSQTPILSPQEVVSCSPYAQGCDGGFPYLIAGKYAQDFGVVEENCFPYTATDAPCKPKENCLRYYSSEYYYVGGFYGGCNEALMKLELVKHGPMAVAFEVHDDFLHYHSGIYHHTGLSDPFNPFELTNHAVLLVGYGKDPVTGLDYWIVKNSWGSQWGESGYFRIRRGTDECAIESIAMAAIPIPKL
Protocol: DP I or cathepsin C is a lysosomal cysteine protease which cleaves off dipeptides from the N-terminus of their substrates (Gutman, H. R. & Fruton, J. S., 1948, J. Biol: Chem., 174, 851-858). It is classified as a cysteine protease. The enzyme used was purchased from Qiagen (Qiagen GmbH, Hilden, Germany). In order to get a fully active enzyme, the enzyme was diluted 1000fold in MES buffer pH5.6 (40 mM MES, 4 mM DTT, 4 mM KCl, 2 mM EDTA, 0.015% Brij) and pre-incubated for 30 min at 30° C.
50 μl glutaminyl pyrrolidine or glutaminyl thiazolidine in a concentration range of 1*10^−5 M-1*10^−7 M were admixed with 110 μl buffer-enzyme-mixture. The assay mixture was pre-incubated at 30° C. for 15 min. After pre-incubation, 100 μl histidylseryl-β-nitroaniline (2*10^-5M) was added and measurement of yellow color development due to β-nitroaniline release was performed at 30° C. and […] for 10 min., using a plate reader (HTS7000 plus, Applied Biosystems, Weiterstadt, Germany).
The IC50-values were calculated using Graphit 4.0.15 (Erithacus Software, Ltd., UK).

NC(=O)CCC(N)C(=O)N1CCSC1 (stereo not drawn) [Gln-Thia, glutaminyl thiazolidine]
inhibition of POP activity [1]: No inhibition | IC50 [2]: > 3000 µM | inhibition of the DP I enzyme activity [3]: No inhibition
